Experimental data taken from paper PMC4742184.
Results are given in words; binding and its absence hold for the method and conditions named. Binding seen in cells or lysates may run through a third protein. Some entries that bind do so weakly or less than the wild type.

By UniProt entry, the sequences of proteins in these tests, tags left out.
UniProt Q9UBN7: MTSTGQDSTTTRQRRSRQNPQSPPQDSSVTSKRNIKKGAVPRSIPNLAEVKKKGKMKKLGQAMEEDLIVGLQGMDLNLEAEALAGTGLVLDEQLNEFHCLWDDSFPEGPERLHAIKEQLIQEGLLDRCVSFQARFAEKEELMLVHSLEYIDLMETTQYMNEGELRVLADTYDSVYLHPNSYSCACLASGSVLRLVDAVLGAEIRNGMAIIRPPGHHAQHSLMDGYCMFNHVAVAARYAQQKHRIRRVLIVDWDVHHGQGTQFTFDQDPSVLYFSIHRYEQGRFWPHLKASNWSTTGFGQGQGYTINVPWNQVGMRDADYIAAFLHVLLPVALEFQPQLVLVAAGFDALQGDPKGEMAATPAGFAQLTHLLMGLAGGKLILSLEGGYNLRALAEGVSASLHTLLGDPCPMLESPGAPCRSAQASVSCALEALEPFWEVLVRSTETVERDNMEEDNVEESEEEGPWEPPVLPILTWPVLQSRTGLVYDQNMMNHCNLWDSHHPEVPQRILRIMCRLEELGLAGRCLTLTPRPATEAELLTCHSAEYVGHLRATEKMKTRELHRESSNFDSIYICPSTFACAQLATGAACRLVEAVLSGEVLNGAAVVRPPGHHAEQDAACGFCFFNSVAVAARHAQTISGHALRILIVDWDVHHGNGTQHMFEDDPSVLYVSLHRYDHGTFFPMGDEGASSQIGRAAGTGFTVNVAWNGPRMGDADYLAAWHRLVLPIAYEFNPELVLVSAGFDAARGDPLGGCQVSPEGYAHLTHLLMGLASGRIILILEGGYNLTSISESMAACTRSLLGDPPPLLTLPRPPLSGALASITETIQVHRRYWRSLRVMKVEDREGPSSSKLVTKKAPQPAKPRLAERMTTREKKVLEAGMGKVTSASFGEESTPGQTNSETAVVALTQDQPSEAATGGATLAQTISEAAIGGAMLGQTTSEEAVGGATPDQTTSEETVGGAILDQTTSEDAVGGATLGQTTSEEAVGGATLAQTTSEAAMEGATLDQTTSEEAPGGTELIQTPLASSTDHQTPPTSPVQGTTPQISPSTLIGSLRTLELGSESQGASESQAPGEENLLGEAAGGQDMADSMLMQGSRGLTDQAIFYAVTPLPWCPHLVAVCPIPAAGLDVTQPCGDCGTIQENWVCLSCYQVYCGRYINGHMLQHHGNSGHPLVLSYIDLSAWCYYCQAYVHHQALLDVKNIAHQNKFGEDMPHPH
UniProt O94811: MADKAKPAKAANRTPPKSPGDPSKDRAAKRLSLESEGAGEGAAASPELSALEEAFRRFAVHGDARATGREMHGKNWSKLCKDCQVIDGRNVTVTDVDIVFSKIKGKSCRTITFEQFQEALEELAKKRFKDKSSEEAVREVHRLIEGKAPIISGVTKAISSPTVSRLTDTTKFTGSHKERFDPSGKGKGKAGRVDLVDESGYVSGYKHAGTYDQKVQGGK

Target: HDAC6 (human (endogenous in HTC/C3)) (UniProt Q9UBN7)
Assay: co-IP; endogenous proteins from HTC/C3 lysate (50 mM Tris-HCl pH 7.4, 150 mM NaCl, 1% Triton X-100), ~2 ug primary antibody overnight at 4°C, Protein G sepharose, western blot; cells treated with 10 uM SP600125 or DMSO for 72 hours

binding: binds
Substance: TPPP1 (from UniProt O94811 1-219)
